Measurements as given in article PMC4587915.
Results are given in words; binding and its absence hold for the method and conditions named. Some entries that bind do so weakly or less than the wild type. One block for each molecule: values may come before it.

The chains behind the UniProt entries cited, without tags or fusion partners. Residues count along the entry.
UniProt Q8CJ69, residues 40-685: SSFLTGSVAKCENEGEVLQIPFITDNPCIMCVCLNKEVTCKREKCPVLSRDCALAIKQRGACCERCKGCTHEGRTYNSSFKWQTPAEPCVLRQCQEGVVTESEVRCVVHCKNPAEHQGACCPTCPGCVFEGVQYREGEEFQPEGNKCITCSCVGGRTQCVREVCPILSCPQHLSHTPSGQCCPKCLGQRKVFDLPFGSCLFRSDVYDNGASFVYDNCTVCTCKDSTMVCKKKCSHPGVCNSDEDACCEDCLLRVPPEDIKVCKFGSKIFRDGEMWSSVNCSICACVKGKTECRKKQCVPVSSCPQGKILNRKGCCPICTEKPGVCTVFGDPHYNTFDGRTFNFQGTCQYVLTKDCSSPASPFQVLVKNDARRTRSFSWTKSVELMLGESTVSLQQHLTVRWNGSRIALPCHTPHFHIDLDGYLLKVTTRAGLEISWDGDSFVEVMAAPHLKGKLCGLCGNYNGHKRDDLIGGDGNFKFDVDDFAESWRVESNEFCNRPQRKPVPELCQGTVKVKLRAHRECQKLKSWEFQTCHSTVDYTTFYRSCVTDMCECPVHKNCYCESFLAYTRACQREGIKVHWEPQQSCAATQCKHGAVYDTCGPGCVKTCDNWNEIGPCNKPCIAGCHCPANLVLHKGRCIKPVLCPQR

How the values were obtained:
[1] = molecular target: T1, BMP2 (bone morphogenetic protein 2), recombinant (UniProt P12643); test: co-IP; beads conjugated with anti-BMPER or anti-BMP2 antibody (or goat or rabbit IgG controls) incubated with combinations of recombinant BMPER and BMP2; beads isolated, Western blot; both purified
T1 sequence: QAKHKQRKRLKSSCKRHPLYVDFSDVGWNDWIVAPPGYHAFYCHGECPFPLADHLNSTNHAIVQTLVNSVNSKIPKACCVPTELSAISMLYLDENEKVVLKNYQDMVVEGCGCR

[2] = molecular target: BMPER (BMP-binding endothelial regulator), recombinant (UniProt Q8CJ69); test: as above

binding [1]: binds
Molecule: BMPER (BMP-binding endothelial regulator), recombinant (from UniProt Q8CJ69 40-685)

binding [2]: binds
B1: BMP2 (bone morphogenetic protein 2), recombinant (ligand, UniProt P12643 283-396)
chain: T1 sequence
